Experiment [1] deals with T1, GST-CED-9 (C. elegans) (UniProt P41958).
T1 sequence (looked up): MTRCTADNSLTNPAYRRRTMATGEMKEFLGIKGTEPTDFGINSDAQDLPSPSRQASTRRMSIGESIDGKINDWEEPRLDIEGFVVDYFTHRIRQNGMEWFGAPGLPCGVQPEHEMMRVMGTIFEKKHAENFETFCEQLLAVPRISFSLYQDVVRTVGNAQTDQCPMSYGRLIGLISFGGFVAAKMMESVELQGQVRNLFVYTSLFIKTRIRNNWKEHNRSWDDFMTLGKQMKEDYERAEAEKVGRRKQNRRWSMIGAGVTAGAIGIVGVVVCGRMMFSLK
Put plainly: in vitro (GST pull-down).

By UniProt entry, the sequences of proteins in these tests, tags left out.
UniProt P10415: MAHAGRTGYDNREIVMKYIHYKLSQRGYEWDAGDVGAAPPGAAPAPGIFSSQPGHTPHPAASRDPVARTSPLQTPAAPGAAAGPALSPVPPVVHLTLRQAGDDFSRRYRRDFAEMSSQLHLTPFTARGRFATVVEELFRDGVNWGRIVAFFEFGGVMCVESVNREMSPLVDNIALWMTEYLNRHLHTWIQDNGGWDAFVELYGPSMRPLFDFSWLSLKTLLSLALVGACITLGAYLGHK

For experiment [2], the target named is T1, GST-CED-9 (C. elegans). Put plainly: GST pull-down, 35S-labeled S.TAG-EGL-1 with GST-CED-9, SDS-PAGE and autoradiography.
Experiment [3] addresses T1, GST-CED-9 (C. elegans). In words: glutathione-S-transferase pull-down.
For experiment [4], the target named is human Bcl-2 protein (human) (UniProt P10415). Put plainly: yeast two-hybrid system.
The target of experiment [5] is T2, C. elegans CED-9 protein (C. elegans) (UniProt P41958).
T2 sequence (looked up): T1 sequence (looked up)
In words: yeast two-hybrid system.

No constants are given. Whether binding was seen depends on the method and setting. For some assays here: In cells and extracts the contact can be indirect. Some results given as binding are weak or reduced against the parent protein; the word gives no strength. For some assays here: Sequences can lack the tags named with a protein.

B1: S.TAG-EGL-1 (protein, not shown: small tags and cut ends)
chain: MSNVFDVQSSVFYNEKNMFYSSSQDFSSCEDSSQFADDSGFFDDSEISSIGYEIGSKLAAMCDDFDAQMMSYSAHASDRSLFHRLLDFFAF
Turning to B1, the binding result in experiment [1], in experiment [2] and in experiment [3] was “binds” each time.

B2: EGL-1 protein (protein)
chain: B1 chain
Turning to B2, the binding entry in experiment [4] and in experiment [5] was “binds” each time.

The record behind these values is US6596495.
